Binding data for two molecules are collected here from patent US20130302346A1 (LEXICON PHARMACEUTICALS, published 2013).

The target in this assay is Cynomolgus monkey NOTUM (cynomolgus monkey). Nature of the assay: ELISA.

Results are given in words; binding and its absence hold for the method and conditions named. Binding calls can cover weak binding; strength is not graded here.

B1: MAb 2.1029 (antibody, IgG2a, V domains shown)
VH: QVQLKESGPGLVAPSQSLSITCTVSGFSLTSYGVHWVRQPPGKGLEWLGVIWAGGSTNYNSALMSRLSISKDNSKSQVFLKMNSLQTDDTAIYFCARDGDYGTIYAMDYWGQGTSVTVSS
VL: DIQMTQTTSSLSASLGDRVTISCRASQDISNYLNWYQQKPDGTVKLLIYYTSRLHSGVPSRFTGSGSGTDYSLTISNLEQEDIATYFCQQGKTLPRTFGGGTMLEIKR
notes: Mouse monoclonal antibody from Campaign 2, IgG2a
Turning to B1, the binding entry is “binds”.

B2: MAb 2.78 (antibody, V domains shown)
VH: DVQLVESGGGLVQPGGSRKLSCAASGFTFSSFGMHWVRQAPEKGLEWVAYITSGSGAIYYADTVRGRFTISRDTPKNTLFLQMTSLRSEDTAMYYCARSADGLDYWGQGTSVTVSS
VL: DIQMTQSPASLYVSVGETVTITCRASENIYSNLAWYQQKQGKSPQLLVYGATNLADGVPSRFSGSGSGTQYSLKINSLKSEDFGSYYCQHFWGTPFTFGSGTKLEIKR
notes: Mouse monoclonal antibody from Campaign 2 (raised against mouse NOTUM), IgG2b
For the molecule B2, the binding entry is on record as “binds”.
